This is one part of the list.
Experiments:
Experiment in all cases: log2 fold change, soluble protein after heating vs DMSO (PISA); higher = thermal stabilisation; K562 lysate, 10 uM; active = over 0.2 and 3.5 SD of the protein, either way, in both replicates (recomputed)
[1] = compound: C1=CC=C(C=C1)[C@H](COC2=CC3=C(C=C2)NC(=O)N3)NC(=O)C4=CC=CN(C4=O)CC5=CC(=C(C=C5)F)F
How it was run: (§1)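 Thermal stability, expressed as log-two fold change relative to solvent controls, is given from duplicates. Crude K562 extract in PBS pH 7.4 with 1 mM MgCl2, at 1 mg/mL protein, was treated with 10 μM compound for 30 min and heated in aliquots for 3 min across 48°C-58°C. After pooling, adjustment to 0.5% NP-40 at 4°C and centrifugation at 21,000xg for 90 min, supernatant protein was measured by TMTpro 16plex LC-MS/MS with channel sums equalised.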

By UniProt entry, the sequences of proteins in these tests, tags left out. Where a name states a change or a piece, a line headed by the entry shows the natural chain unless it says otherwise.
UniProt Q14320: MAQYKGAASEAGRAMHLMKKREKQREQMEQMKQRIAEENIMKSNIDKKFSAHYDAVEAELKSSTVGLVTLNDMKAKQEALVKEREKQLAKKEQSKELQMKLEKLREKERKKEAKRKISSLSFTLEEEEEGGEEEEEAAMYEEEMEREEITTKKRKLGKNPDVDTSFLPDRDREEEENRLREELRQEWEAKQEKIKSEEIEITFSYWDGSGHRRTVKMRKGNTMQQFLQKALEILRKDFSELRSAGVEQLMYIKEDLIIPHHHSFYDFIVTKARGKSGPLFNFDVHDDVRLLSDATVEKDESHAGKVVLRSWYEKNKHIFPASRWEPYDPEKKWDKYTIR
UniProt Q7Z309: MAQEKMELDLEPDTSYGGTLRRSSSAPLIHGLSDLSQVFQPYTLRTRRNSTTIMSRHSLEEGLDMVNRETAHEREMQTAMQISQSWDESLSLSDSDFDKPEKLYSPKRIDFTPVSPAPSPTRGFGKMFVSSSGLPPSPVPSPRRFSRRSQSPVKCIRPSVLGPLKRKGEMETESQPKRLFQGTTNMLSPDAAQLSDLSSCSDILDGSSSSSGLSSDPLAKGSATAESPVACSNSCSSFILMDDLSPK
UniProt Q96B26, whole entry, looked up: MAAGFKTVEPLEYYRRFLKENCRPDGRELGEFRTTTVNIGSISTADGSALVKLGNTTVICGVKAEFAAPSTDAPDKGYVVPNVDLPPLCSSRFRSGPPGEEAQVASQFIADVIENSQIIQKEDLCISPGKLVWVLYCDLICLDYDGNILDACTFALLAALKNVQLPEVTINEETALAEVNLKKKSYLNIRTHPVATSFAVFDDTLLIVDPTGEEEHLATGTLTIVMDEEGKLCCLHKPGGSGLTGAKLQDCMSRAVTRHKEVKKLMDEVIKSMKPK
UniProt Q8IXS8: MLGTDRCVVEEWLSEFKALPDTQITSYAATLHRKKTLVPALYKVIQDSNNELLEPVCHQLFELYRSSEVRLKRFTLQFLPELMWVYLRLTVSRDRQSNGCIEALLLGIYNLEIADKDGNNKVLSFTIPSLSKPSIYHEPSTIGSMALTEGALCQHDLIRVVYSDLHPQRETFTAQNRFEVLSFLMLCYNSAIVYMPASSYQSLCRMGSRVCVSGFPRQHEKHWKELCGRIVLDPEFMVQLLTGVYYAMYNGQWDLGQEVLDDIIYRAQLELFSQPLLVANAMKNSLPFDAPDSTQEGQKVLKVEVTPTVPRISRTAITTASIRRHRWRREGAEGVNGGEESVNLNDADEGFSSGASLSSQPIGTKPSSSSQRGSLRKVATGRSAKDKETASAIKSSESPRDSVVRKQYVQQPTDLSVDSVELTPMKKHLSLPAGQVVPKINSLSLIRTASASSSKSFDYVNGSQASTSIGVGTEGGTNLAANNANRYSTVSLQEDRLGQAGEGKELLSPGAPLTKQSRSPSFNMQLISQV
UniProt O60447: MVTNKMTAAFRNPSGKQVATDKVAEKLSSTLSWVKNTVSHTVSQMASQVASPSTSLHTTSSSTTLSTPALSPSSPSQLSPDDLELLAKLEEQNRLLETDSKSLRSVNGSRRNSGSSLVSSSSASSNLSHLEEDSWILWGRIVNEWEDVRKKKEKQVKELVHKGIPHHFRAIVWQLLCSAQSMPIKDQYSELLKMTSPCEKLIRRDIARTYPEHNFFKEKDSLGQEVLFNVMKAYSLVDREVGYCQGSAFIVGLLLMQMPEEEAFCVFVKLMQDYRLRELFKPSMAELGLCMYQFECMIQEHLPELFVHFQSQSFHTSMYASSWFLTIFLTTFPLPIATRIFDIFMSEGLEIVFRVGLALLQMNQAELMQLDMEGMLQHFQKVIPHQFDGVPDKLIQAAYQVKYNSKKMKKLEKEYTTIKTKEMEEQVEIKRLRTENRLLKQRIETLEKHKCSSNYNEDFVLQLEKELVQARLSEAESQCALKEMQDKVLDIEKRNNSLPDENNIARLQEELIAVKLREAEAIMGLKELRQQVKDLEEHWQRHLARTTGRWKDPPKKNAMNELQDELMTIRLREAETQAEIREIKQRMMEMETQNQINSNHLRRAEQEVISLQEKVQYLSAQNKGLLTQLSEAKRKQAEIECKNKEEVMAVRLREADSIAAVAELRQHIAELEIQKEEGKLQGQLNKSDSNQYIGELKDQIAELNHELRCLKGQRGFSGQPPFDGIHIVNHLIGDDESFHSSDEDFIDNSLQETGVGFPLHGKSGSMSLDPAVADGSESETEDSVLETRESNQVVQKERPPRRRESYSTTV
UniProt Q96GK7: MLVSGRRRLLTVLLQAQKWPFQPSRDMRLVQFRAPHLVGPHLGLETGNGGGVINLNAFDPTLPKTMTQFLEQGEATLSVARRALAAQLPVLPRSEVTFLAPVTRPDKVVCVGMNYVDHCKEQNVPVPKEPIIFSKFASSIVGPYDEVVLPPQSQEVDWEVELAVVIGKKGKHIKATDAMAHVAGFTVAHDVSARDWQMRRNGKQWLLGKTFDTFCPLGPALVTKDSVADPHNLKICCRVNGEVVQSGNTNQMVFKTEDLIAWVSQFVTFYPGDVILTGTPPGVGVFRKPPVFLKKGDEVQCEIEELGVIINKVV
UniProt Q86YB8: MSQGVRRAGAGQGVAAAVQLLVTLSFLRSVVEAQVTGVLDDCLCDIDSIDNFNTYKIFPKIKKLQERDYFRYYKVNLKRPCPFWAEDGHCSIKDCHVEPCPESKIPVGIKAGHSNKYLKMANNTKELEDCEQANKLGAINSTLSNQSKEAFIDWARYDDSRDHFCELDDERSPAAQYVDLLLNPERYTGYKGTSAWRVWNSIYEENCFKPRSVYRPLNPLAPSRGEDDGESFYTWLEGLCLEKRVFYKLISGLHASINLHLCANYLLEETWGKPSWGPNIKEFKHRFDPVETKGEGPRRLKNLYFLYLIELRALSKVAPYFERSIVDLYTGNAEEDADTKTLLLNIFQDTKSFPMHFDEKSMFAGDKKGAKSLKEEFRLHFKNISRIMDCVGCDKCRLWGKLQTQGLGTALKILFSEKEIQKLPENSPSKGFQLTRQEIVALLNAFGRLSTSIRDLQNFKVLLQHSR
UniProt Q9H0X4: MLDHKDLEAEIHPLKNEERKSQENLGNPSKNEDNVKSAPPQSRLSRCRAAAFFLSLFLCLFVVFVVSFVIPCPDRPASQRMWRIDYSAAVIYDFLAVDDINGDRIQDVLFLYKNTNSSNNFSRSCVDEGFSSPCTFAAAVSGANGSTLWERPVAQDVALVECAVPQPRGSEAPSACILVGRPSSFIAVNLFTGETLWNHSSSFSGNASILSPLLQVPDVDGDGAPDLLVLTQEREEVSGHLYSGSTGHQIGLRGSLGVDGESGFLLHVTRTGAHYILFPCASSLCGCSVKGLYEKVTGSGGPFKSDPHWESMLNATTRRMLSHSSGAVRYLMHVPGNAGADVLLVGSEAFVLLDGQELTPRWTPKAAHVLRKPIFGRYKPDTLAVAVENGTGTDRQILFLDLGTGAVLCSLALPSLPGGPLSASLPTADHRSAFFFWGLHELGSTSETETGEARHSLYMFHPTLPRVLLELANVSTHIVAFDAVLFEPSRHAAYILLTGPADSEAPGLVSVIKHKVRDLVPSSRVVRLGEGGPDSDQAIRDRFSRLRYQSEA
UniProt Q96A26: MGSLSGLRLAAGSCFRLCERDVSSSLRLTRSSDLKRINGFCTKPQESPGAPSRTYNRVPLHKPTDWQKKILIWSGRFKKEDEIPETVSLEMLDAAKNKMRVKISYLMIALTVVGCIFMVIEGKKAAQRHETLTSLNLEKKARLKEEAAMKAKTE
UniProt Q8WU58: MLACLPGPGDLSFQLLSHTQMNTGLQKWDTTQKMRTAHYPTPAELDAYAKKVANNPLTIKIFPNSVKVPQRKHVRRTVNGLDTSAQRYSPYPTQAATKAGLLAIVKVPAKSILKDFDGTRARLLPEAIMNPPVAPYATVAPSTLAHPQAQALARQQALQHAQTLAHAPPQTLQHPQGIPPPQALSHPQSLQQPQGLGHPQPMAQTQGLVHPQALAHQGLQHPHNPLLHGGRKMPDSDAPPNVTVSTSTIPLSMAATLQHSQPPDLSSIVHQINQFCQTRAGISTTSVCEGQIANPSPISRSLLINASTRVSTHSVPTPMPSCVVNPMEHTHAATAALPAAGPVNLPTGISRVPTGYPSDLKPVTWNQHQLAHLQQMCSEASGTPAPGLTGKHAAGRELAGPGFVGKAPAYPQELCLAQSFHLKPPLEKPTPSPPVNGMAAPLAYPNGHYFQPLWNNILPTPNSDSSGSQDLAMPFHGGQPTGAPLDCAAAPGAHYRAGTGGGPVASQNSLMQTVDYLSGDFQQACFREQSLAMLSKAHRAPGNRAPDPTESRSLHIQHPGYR
UniProt O75063: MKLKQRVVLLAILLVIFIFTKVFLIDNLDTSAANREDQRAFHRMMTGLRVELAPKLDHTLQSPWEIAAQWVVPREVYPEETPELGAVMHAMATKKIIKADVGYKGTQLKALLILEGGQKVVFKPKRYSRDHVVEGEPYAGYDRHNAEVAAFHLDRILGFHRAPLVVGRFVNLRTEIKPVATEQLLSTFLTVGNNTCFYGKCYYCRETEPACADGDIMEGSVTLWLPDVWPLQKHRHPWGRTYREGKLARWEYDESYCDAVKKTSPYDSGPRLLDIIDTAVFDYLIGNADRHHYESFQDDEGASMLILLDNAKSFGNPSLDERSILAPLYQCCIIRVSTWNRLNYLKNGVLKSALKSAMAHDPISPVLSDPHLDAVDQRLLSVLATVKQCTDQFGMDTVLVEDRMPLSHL
UniProt Q9BYI3: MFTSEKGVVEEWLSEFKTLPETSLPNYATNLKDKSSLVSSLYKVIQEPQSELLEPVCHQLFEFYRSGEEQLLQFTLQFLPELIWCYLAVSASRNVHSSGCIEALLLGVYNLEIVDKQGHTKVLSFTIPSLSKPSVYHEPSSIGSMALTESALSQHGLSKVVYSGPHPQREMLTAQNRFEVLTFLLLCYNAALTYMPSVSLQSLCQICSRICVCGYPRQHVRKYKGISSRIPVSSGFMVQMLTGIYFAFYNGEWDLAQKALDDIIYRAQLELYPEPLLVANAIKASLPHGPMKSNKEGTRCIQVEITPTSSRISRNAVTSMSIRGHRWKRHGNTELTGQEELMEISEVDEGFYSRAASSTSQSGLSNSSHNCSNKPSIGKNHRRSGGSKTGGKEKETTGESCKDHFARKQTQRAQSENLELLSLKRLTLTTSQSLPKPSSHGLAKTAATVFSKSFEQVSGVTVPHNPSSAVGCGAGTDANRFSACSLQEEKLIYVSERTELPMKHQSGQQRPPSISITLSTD
UniProt Q96A65: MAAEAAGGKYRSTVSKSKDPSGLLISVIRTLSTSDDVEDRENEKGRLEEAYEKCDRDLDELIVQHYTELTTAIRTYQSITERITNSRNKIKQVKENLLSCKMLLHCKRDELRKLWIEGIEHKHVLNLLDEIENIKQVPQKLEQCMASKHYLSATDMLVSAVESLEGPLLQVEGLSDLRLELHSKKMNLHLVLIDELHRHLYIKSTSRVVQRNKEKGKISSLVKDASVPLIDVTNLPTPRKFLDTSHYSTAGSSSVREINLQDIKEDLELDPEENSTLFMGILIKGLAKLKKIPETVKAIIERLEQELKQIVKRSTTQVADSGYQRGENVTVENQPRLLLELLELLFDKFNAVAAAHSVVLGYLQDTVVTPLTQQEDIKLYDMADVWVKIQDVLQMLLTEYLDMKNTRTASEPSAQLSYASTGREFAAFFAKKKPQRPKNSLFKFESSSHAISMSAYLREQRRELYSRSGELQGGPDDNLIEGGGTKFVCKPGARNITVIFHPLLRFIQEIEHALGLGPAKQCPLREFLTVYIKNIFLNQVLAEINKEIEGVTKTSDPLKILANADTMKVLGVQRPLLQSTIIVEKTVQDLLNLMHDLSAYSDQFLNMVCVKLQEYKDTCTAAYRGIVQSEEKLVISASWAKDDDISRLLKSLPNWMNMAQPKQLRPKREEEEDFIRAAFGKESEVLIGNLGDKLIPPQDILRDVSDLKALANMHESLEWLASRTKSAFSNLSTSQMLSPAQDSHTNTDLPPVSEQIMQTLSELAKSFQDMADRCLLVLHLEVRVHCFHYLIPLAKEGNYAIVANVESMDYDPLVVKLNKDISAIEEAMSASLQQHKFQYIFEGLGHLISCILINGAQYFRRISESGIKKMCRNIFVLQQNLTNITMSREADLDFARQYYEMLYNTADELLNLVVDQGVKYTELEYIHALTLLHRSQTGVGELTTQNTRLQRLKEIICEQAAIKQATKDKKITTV
UniProt Q9H790: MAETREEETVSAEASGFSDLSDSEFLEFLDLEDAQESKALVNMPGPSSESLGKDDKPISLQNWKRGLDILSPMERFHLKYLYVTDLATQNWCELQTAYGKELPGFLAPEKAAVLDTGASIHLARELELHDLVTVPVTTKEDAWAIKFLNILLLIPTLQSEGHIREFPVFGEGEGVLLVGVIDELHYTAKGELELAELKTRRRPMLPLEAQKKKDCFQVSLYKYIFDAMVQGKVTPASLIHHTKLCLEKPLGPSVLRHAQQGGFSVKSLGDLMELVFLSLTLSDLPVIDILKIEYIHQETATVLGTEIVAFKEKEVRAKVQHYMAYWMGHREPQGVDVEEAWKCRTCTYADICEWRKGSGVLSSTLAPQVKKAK

[2] = compound: CC1=C(SC2=C1C(=N[C@H](C3=NN=C(N32)C)CC(=O)N)C4=CC=C(C=C4)Cl)C
How it was run: as §1

[3] = compound: CC1=C2C(=CC=C1)N=C(N(C2=O)C3=CC=CC=C3C)CN4C=NC5=C(N=CN=C54)N
How it was run: as §1

[4] = compound: Cc1sc2c(c1C)C(c1ccc(Cl)cc1)=N[C@@H](CC(=O)OC(C)(C)C)c1nnc(C)n1-2
How it was run: as §1

[5] = compound: c1ccc([C@@H]2C[C@H]2NC2CCNCC2)cc1
How it was run: as §1

Measured: log2 fold change

FAM50A (UniProt Q14320)
inactive: [1] 0.009 | [2] 0.012 | [3] 0.007 | [4] -0.002 | [5] 0.014

FAM122A (UniProt Q96E09)
inactive: [1] 0.097 | [2] -0.011 | [3] -0.018 | [4] 0.095 | [5] -0.031

EWSR1 isoform 5 (UniProt Q01844)
inactive: [1] 0.047 | [2] -0.024 | [3] -0.012 | [4] 0.053 | [5] 0.002

FAM122B isoform 3 (UniProt Q7Z309)
inactive: [1] -0.028 | [2] -0.017 | [3] -0.101 | [4] 0.138 | [5] 0.149

EXOSC8 (UniProt Q96B26)
inactive: [1] 0.035 | [2] 0 | [3] -0.051 | [4] -0.061 | [5] -0.01

FAM49B, A0A1W2PRQ0
inactive: [1] 0.177 | [2] -0.006 | [3] -0.014

FAM126B (UniProt Q8IXS8)
inactive: [1] -0.119 | [2] 0.044 | [3] 0.121 | [4] 0.113 | [5] -0.111

EVI5 isoform 2 (UniProt O60447)
inactive: [1] -0.069 | [2] 0.05 | [3] -0.032 | [4] -0.021 | [5] 0.045

EXOC7 (UniProt Q9UPT5)
inactive: [1] -0.07 | [2] -0.008 | [3] 0.046 | [4] -0.067 | [5] 0.012

FAHD2A (UniProt Q96GK7)
inactive: [1] -0.002 | [2] 0.024 | [3] -0.013 | [4] -0.011 | [5] 0.008

FAH (UniProt P16930)
inactive: [1] 0.03 | [2] -0.012 | [3] -0.011 | [4] -0.006 | [5] -0.127

FAM78A (UniProt Q5JUQ0)
inactive: [1] 0.094 | [2] 0.016 | [3] 0.048 | [4] -0.129 | [5] -0.089

ERO1B (UniProt Q86YB8)
inactive: [1] 0 | [2] 0.108 | [3] -0.005 | [4] 0.02 | [5] 0.006

Two records picked at random from the list so far:
FAM78A (UniProt Q5JUQ0)
inactive: [1] 0.094 | [2] 0.016 | [3] 0.048 | [4] -0.129 | [5] -0.089

FAH (UniProt P16930)
inactive: [1] 0.03 | [2] -0.012 | [3] -0.011 | [4] -0.006 | [5] -0.127

Additional entries

FAM192A (UniProt Q9GZU8)
inactive: [1] 0.011 | [2] -0.024 | [3] -0.042 | [4] 0.082 | [5] -0.061

FAM234A (UniProt Q9H0X4)
inactive: [1] 0.024 | [2] 0.03 | [3] -0.001 | [4] -0.104 | [5] 0.013

ESYT2 (UniProt H7BXI1)
inactive: [1] 0.004 | [2] 0.018 | [3] -0.001 | [4] 0.048 | [5] 0.036

FAM162A (UniProt Q96A26)
inactive: [1] 0.06 | [2] 0.028 | [3] -0.041 | [4] 0.053 | [5] 0.044

EZH2 isoform 2 (UniProt Q15910)
inactive: [1] -0.05 | [2] -0.107 | [3] -0.001 | [4] -0.006 | [5] 0.163

FAM222B (UniProt Q8WU58)
inactive: [1] -0.138 | [2] 0.099 | [3] -0.059 | [4] -0.033

FAM241A (UniProt Q8N8J7)
inactive: [1] -0.229 | [2] 0.052 | [3] 0.148 | [4] 0.015 | [5] -0.161

FAM20B (UniProt O75063)
inactive: [1] -0.047 | [2] -0.012 | [3] 0.081 | [4] 0.098 | [5] 0.017

FAM126A (UniProt Q9BYI3)
inactive: [1] -0.031 | [2] 0.136 | [3] 0.126 | [4] -0.098 | [5] -0.059

FAM53B (UniProt Q14153)
inactive: [1] 0.044 | [2] -0.039 | [3] 0.055 | [4] -0.088 | [5] 0.022

EXOC4 (UniProt Q96A65)
inactive: [1] -0.001 | [2] 0.009 | [3] 0.016 | [4] 0.063 | [5] 0.054

EXO5 (UniProt Q9H790)
inactive: [1] 0.033 | [2] -0.179

— the supplement of paper PMC10849652
